Measurements taken from PubChem BioAssay AID504467 (National Center for Advancing Translational Sciences (NCATS), 2011).
Out of some 330,000 compounds screened, about 7,700 (2.3%) were called active. This list was built around the results that the source calls inconclusive (neither active nor inactive); the mix of calls is not that of the screen. The call rests on the fitted dose curve; in most records, active means well fitted inhibition curve with a large enough effect; inconclusive means small, poorly fitted or top-dose-only effect, or effect the other way; inactive means flat fitted curve, though single readings scatter. A potency beside an inconclusive call is a rough fit, not a confirmed value.

Assay: qHTS screen for small molecules that inhibit ELG1-dependent DNA repair in human embryonic kidney (HEK293T) cells expressing luciferase-tagged ELG1; further: nearly all actives have a fitted effect of over 55% in size
Settings: HEK293T ELG1-luciferase reporter, luminescence, 16 h, DNA damage induced by 5-fluorouridine; activity change, negative = inhibition: at 46.1 µM (top of the series)
Method in brief: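 5-Fluorouridine DNA damage + compound/DMSO, 2,000 cells/well, 16 h, 37 °C/5% CO2. ONE-Glo, 30 min RT, luminescence. Readout = decrease in reporter signal.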
On the % scale 0 is the no-effect control and ±100 the full control effect; potency means the concentration at half of the fitted maximal effect.

Row | Structure (SMILES) | Potency | activity change, negative = inhibition
1 | CCN(CC(=O)Nc1ccccc1Br)Cc1nc2ccccc2c(=O)[nH]1 | inconclusive: 20.6 µM [inhibitor, partial curve, poor fit] | 
2 | CC(C)[C@H](NC(=O)c1ccco1)C(=O)OCC(=O)c1ccc(Br)s1 |  | inactive: -0.819%
3 | C1=C(c2ccc(-c3ccccc3)cc2)Nc2ncnn2C1c1ccco1 (stereo not given) | inconclusive: 8.2 µM [activator, single point] | 
4 | CC(=O)Nc1ccc(C(=O)NCC(=O)OCc2ccccc2F)cc1 |  | inactive: 4.81%
5 | CCOc1ccc2c(c1)c(N=NC(=N)N)c(O)n2C |  | inactive: 10.3%
6 | Cc1ccnc(NC(=O)CCc2c[nH]c3ccccc23)c1 | inconclusive: 16.4 µM [activator, single point] | 
7 | CC1CCN(S(=O)(=O)c2ccc(Cl)cc2)CC1 |  | inactive: -18.1%
8 | COc1ccc(C(=O)Nc2nnc(-c3ccco3)s2)cc1 | inconclusive: 0.517 µM [activator, full curve] | 
9 | Nc1cc2nc3ccccc3oc-2cc1=O | inconclusive: 4.11 µM [inhibitor, single point] | 
10 | Cc1ccc(NC(=O)Cn2c(O)c(N=NC(N)=S)c3ccccc32)cc1 |  | inactive: 4.57%
11 | Cc1cc(Br)c(NC(=O)c2c(-c3c(Cl)cccc3Cl)noc2C)c(Br)c1 |  | inactive: 10.7%
12 | COc1ccc(CCNC(=O)c2nnn(-c3ccc4c(c3)OCCO4)c2N)cc1OC | inconclusive: 2.31 µM [activator, partial curve, poor fit] | 
13 | CNCCCOc1cccc(OC(C)C)c1 | inconclusive: 20.6 µM [activator, partial curve, poor fit] | 
14 | O=[N+]([O-])c1cccc(N/N=C/c2cccc3ccccc23)c1 | inconclusive: 16.4 µM [activator, partial curve] | 
15 | Nc1ccc(Oc2cc(N)cc(Oc3ccccc3)c2)cc1 | inconclusive: 20.6 µM [activator, partial curve] | 
16 | CN(CC(=O)NC1CCN(Cc2ccccc2)CC1)S(=O)(=O)c1ccc(Cl)s1 | inconclusive: 16.4 µM [inhibitor, partial curve, poor fit] | 
17 | COc1ccc(-c2cc(=O)oc3cc(OC(C)C(=O)Nc4ccc(CN5CCOCC5)cc4)ccc23)cc1 (stereo not given) | inconclusive: 16.4 µM [inhibitor, partial curve] | 
18 | Cc1ccc(-c2nc(CSc3nc4ccccc4c(=O)n3C)cs2)cc1 | inconclusive: 29.1 µM [activator, single point] | 
19 | CC(=O)N1N=C(c2ccc(C)o2)CC1c1ccc(F)cc1 (stereo not given) | inconclusive: 29.1 µM [activator, single point] | 
20 | O=C(CS(=O)(=O)c1ccc2ccccc2c1)Nc1ccccc1Cl |  | inactive: -0.809%
21 | c1ccc(Cn2nnc3c(N4CCCCCC4)ncnc32)cc1 | inconclusive: 23.1 µM [inhibitor, single point] | 
22 | O=C(N/N=C/c1ccc([N+](=O)[O-])cc1)c1cccc2cc[nH]c12 |  | inactive: 8%
23 | O=C(OCc1nc2ccccc2s1)c1cccc(S(=O)(=O)N2CCOCC2)c1 | inconclusive: 9.2 µM [activator, partial curve] | 
24 | O=c1[nH]c(C2CCN(S(=O)(=O)c3ccc4c(c3)OCCO4)CC2)nc2c1nnn2Cc1c(F)cccc1Cl | inconclusive: 20.6 µM [inhibitor, single point] | 

Among those listed so far, these contain a furan ring, fused or not.
Row | Structure (SMILES) | Potency | activity change, negative = inhibition
2 | CC(C)[C@H](NC(=O)c1ccco1)C(=O)OCC(=O)c1ccc(Br)s1 |  | inactive: -0.819%
3 | C1=C(c2ccc(-c3ccccc3)cc2)Nc2ncnn2C1c1ccco1 (stereo not given) | inconclusive: 8.2 µM [activator, single point] | 
8 | COc1ccc(C(=O)Nc2nnc(-c3ccco3)s2)cc1 | inconclusive: 0.517 µM [activator, full curve] | 
19 | CC(=O)N1N=C(c2ccc(C)o2)CC1c1ccc(F)cc1 (stereo not given) | inconclusive: 29.1 µM [activator, single point] | 

The results go on.

Row | Structure (SMILES) | Potency | activity change, negative = inhibition
25 | CC1CN(c2ncc(/C=N/NC(=O)c3ccccc3O)s2)CC(C)O1 (stereo not given) | inconclusive: 20.6 µM [inhibitor, single point] | 
26 | O=C(O)COCC(=O)N1CCCN(c2nccc(C(F)(F)F)n2)CC1 |  | inactive: 0.0919%
27 | O=C(O)c1cc2c(ccc3ccccc32)oc1=O | inconclusive: 29.1 µM [activator, single point] | 
28 | CCN(CC(=O)Nc1ccc(NC(C)=O)cc1)C(=O)CCN1C(=O)C2CC=CCC2C1=O (stereo not given) |  | inactive: -5.97%
29 | Cc1ccc(OCC(=O)NCc2ccccn2)c(Br)c1 | inconclusive: 11.2 µM [activator, partial curve] | 
30 | CCN(CC)c1nc(-c2cccc(OC)c2O)nc2ccccc12 | inconclusive: 23.1 µM [inhibitor, partial curve] | 
31 | Cc1ccc(C2CCN(C(=O)Nc3ccccc3)C2)cc1 (stereo not given) | inconclusive: 9.2 µM [activator, partial curve] | 
32 | Cc1nc2nc(CSc3ccc(Cl)cc3)cc(=O)n2[nH]1 |  | inactive: 15.2%
33 | COc1cc(/C=N/NC(N)=O)ccc1OCC(=O)Nc1cc(C)c(C)cc1Br | inconclusive: 9.2 µM [activator, partial curve] | 
34 | CCCCc1ccc(NC(=S)Nc2ccc(Nc3ccc(OC)cc3)cc2)cc1 | inconclusive: 14.6 µM [inhibitor, partial curve, poor fit] | 
35 | CCOc1ccc(-c2nnc(NC(=O)CCCOc3cccc(C)c3)o2)cc1 | inconclusive: 16.4 µM [activator, single point] | 
36 | C=CCOc1c(Br)cc(CNn2c(C)n[nH]c2=S)cc1OCC |  | inactive: 7.13%
37 | CCNC(=O)CSc1nc2ccccc2c(=O)n1OC | inconclusive: 29.1 µM [activator, partial curve, poor fit] | 
38 | CCN(C(=O)c1cc2c(=O)n3cccc(C)c3nc2n1CCCOC)C1CCCCC1 | active: 23.1 µM | 
39 | Cc1ccccc1Nc1nc(-c2sc(NC(=O)c3cccc(Cl)c3)nc2C)cs1 |  | inactive: 2.81%
40 | COc1ccc(-c2ccc(SCC(=O)Nc3cccc(C(C)=O)c3)nn2)cc1OC | inconclusive: 29.1 µM [inhibitor, single point] | 
41 | Cc1cc(Oc2ccccc2)nc2ccc(O)cc12 | inconclusive: 18.4 µM [activator, single point] | 
42 | CCN(CC)S(=O)(=O)N1CCC(C(=O)NC2CCCc3ccccc32)CC1 (stereo not given) | active: 16.4 µM | 
43 | O=C(O)C1Oc2cc3ccccc3cc2O1 |  | inactive: 0.954%
44 | CN(C)c1ccc(C(=O)c2ccc(N(C)C)c3ccccc23)cc1 | inconclusive: 9.2 µM [activator, partial curve] | 
45 | CC1=NNC(=O)/C1=C\c1cn(-c2ccccc2)nc1-c1ccc(F)cc1 | inconclusive: 32.6 µM [inhibitor, single point] | 
46 | Cc1ccc(-n2c(=O)c3sccc3n(Cc3cc(=O)n4ccccc4n3)c2=O)cc1F |  | inactive: 11.1%
47 | COc1ccc(CC(=O)Oc2ccc(C)cc2Br)cc1OC |  | inactive: 4.57%
48 | O=C(OCC(=O)c1ccc(Cl)s1)c1ccc2ccccc2n1 | inconclusive: 20.6 µM [activator, single point] | 

Row | Structure (SMILES) | Potency | activity change, negative = inhibition
49 | Cc1ccc(CNc2cnn(C34CC5CC(CC(C5)C3)C4)c(=O)c2Cl)cc1 |  | inactive: -3.76%
50 | c1csc(-c2nnc(-c3ccc(N4CCOCC4)cc3)o2)c1 | inconclusive: 0.58 µM [activator, partial curve, poor fit] | 
51 | CC1Cc2cc(S(=O)(=O)NCCC(=O)N(C)Cc3ccccc3)ccc2N1C(=O)C1CC1 (stereo not given) | inconclusive: 0.058 µM [inhibitor, full curve, poor fit] | 
52 | N#Cc1c(/N=C/c2ccco2)sc2c1CCC2 | inconclusive: 8.2 µM [activator, partial curve, poor fit] | 
53 | OC(COc1cccc(OCC(O)CN2CCOCC2)c1)CN1CCOCC1 (stereo not given) | inconclusive: 18.4 µM [inhibitor, single point] | 
54 | CCC(=O)Nc1ccc(NCc2ccc(-c3ccccc3)cc2)cc1 | inconclusive: 5.01 µM [inhibitor, partial curve, poor fit] | 
55 | O=[N+]([O-])c1nn(-c2ccccc2)n(O)c1=NCc1ccc2c(c1)OCO2 | inconclusive: 13 µM [activator, partial curve] | 
56 | Cn1ccc(C(=O)Nc2sc3c(c2C(N)=O)CCCCC3)n1 | inconclusive: 1.16 µM [activator, full curve] | 
57 | Cc1noc(C)c1NC(=O)N(C)C[C@H]1Oc2ccc(NC(=O)Nc3ccccc3)cc2C(=O)N([C@H](C)CO)C[C@@H]1C | inconclusive: 16.4 µM [activator, partial curve, poor fit] | 
58 | CC[N+](CC)(CC)C/C=C/CN1CCCCC1 | inconclusive: 20.6 µM [activator, partial curve, poor fit] | 
59 | Cc1ccc(-c2cccc(OC(=O)c3ccccc3F)c2)cc1 | inconclusive: 20.6 µM [activator, single point] | 
60 | COc1ccc(-c2cc(C(F)(F)F)nc(SCCC(=O)NCc3ccccc3)n2)cc1 | inconclusive: 6.51 µM [inhibitor, partial curve, poor fit] | 
61 | COc1ccc([C@H]2CC(=O)C=C(c3cccc(OC)c3OC)C2)cc1OC | active: 9.2 µM | 
62 | CN(C(=O)c1cccnc1)c1nc(-c2ccccc2)cs1 | inconclusive: 2.31 µM [activator, single point] | 
63 | Cc1cc(C)cc(N(C(=O)c2snc(C(N)=O)c2N)C(C(=O)NCC2CCCO2)c2ccc(C)o2)c1 (stereo not given) |  | inactive: -16.3%
64 | O=C(CC12CC3CC(CC(C3)C1)C2)NCc1ccc(F)cc1 |  | inactive: -6.27%
65 | Cc1c(C(=O)NC(=S)N(Cc2ccccc2)c2ccccn2)cccc1[N+](=O)[O-] | inconclusive: 29.1 µM [activator, single point] | 
66 | CC(=O)N1CCCN(Cc2cn(-c3ccc(C)cc3)nc2-c2cccc(C)c2)CC1 | inconclusive: 18.3 µM [inhibitor, partial curve, poor fit] | 
67 | CN(CC1CCOCC1)C(=O)CC1C(=O)NCCN1CC(c1ccccc1)c1ccccc1 (stereo not given) |  | inactive: 0%
68 | COc1ccc(C2SCCN2S(=O)(=O)c2ccc(F)cc2)cc1OC (stereo not given) |  | inactive: -3.2%
69 | COC(=O)c1ccc(Cn2nnc3c(=O)[nH]c(C4CCCN(S(=O)(=O)c5ccc(C)cc5)C4)nc32)cc1 (stereo not given) |  | inactive: -14.3%
70 | CSc1ccc(/C=C/C(=O)N2CCCN(C)CC2)cc1 | inconclusive: 16.4 µM [activator, single point] | 
